Consider one substance from article PMC7733513.

Protein sequences, listed by entry. Tags and fused reporters are not part of them. Lines headed by an entry give the natural chain unless they say otherwise; changes in a name come on top. Residues count along the entry.
UniProt P04279, residues 23-461: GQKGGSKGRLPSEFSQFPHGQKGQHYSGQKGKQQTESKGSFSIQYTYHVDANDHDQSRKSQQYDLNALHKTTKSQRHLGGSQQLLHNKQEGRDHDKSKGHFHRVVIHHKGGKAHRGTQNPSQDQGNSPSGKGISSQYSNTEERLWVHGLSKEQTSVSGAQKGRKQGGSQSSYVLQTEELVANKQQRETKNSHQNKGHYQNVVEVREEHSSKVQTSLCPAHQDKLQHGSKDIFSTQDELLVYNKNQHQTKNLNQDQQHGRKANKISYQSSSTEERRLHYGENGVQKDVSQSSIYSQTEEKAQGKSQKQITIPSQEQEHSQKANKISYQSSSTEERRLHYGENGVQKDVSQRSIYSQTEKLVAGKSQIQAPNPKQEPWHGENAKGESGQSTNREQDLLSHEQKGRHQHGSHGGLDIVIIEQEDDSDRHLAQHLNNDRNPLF
UniProt Q02383: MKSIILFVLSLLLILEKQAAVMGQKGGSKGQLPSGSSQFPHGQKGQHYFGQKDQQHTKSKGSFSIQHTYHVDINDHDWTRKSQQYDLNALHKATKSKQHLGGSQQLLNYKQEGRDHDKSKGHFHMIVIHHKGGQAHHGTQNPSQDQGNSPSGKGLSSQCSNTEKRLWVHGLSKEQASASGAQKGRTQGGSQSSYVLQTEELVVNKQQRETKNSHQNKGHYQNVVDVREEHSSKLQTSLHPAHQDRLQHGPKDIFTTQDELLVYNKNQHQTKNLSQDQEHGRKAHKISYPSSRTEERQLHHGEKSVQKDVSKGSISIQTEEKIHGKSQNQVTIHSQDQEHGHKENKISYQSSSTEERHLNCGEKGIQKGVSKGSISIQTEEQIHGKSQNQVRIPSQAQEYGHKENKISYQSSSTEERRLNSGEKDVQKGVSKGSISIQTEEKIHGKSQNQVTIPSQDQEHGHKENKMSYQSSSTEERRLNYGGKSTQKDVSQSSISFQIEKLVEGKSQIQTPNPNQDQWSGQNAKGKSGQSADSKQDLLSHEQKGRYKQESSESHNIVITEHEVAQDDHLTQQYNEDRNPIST

No constants are given. Whether binding was seen depends on the method and setting. Binding seen in cells or lysates may run through a third protein. Here binding means that the protein was enriched with, or labelled near, the bait; the list need not be complete.

Experiment [1] concerns the target GST-SEMG1 (truncated SEMG1 lacking the signal peptide, 23-461 a.a.) (human) (UniProt P04279). The experiment in a line: affinity purification with mass spectrometry; 50 µg GST-SEMG1 or GST-SEMG2 (GST as control) incubated 3 h with MCF7 cell extract pre-incubated with GST; eluted in Laemmli buffer, SDS-PAGE, LC-MS/MS; only the target purified.
Experiment [2] has as its target GST-SEMG2 (truncated SEMG2 lacking the signal peptide, 23-562 a.a.) (human) (UniProt Q02383). Described as above.

Turning to “pyruvate kinase M2 (PKM2), endogenous in MCF7 cell extract (from UniProt P14618-1 1-531) (enzyme)”, the binding entry in experiment [1] and in experiment [2] was “binds” in each case.
